{"source": "paper PMC11200976", "about": "“Pitavastatin Calcium Confers Fungicidal Properties to Fluconazole by Inhibiting Ubiquinone Biosynthesis and Generating Reactive Oxygen Species” (Antioxidants, 2024)"}
{"system": "C. albicans", "test": "Broth microdilution assay of synergistic lethality with 4 μg/mL FLC (recovery on drug-free YPD)", "format": "cell-based, Candida albicans", "conditions": "concentration of the compound that is synergistically lethal with 4 μg/mL FLC", "units": {"Synergistic lethal concentrations": "µM"}}
{"smiles": "CC(C)c1c(C(=O)Nc2ccccc2)c(-c2ccccc2)c(-c2ccc(F)cc2)n1CC[C@@H](O)C[C@@H](O)CC(=O)O", "note": "[Atorvastatin]", "Synergistic lethal concentrations": 25}
{"smiles": "CCCCc1oc2ccccc2c1C(=O)c1cc(I)c(OCCN(CC)CC)c(I)c1.Cl", "note": "[Amiodarone (hydrochloride)]", "Synergistic lethal concentrations": 25}
{"smiles": "CCCNCC(O)COc1ccccc1C(=O)CCc1ccccc1.Cl", "note": "(stereo not shown) [Propafenone (hydrochloride)]", "Synergistic lethal concentrations": 100}
{"smiles": "CC(C)c1c(C(=O)Nc2ccccc2)c(-c2ccccc2)c(-c2ccc(F)cc2)n1CC[C@@H](O)C[C@@H](O)CC(=O)[O-].CC(C)c1c(C(=O)Nc2ccccc2)c(-c2ccccc2)c(-c2ccc(F)cc2)n1CC[C@@H](O)C[C@@H](O)CC(=O)[O-].[Ca+2]", "note": "[Atorvastatin (hemicalcium salt)]", "Synergistic lethal concentrations": 12.5}
